No constants are given. Whether binding was seen depends on the method and setting. Binding seen in cells or lysates may run through a third protein. Here binding means that the protein was enriched with, or labelled near, the bait; the list need not be complete.
T1: Paraspeckle protein 1 (PSPC1) (human (endogenous in Huh7)) (UniProt Q8WXF1)
T1 sequence: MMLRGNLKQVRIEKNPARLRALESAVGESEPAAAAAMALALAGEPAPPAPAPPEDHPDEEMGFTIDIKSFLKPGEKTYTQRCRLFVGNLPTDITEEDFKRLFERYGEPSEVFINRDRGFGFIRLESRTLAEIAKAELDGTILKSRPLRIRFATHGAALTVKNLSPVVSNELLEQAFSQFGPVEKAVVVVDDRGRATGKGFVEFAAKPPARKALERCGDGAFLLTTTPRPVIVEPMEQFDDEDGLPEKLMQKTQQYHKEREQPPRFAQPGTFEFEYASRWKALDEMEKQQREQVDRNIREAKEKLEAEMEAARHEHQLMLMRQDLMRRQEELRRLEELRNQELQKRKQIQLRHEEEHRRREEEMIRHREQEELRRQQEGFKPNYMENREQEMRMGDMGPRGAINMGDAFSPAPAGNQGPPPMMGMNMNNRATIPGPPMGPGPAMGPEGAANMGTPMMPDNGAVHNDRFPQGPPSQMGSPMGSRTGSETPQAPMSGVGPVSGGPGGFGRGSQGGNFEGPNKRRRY

By UniProt entry, the sequences of proteins in these tests, tags left out.
UniProt P35637: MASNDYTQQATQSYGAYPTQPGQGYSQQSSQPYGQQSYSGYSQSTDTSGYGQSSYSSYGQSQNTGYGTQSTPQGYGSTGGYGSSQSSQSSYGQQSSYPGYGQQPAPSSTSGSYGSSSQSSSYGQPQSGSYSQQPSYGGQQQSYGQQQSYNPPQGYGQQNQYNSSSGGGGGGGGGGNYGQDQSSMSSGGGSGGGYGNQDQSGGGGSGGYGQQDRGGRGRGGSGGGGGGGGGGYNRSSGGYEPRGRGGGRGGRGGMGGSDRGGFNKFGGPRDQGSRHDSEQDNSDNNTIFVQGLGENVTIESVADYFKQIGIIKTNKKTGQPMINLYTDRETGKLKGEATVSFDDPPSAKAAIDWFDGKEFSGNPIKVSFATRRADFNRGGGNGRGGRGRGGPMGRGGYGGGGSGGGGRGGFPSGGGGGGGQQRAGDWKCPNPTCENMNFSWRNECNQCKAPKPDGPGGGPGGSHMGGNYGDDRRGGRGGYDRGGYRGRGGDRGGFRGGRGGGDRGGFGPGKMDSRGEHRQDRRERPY


Molecular target: T1, Paraspeckle protein 1 (PSPC1) (human (endogenous in Huh7))
Assay: affinity purification with mass spectrometry; total cell lysates of Huh7 cells immunoprecipitated with the PSPC1 antibody; SDS-PAGE, Coomassie Blue; bands excised, in-gel digestion, LC-MS/MS

Row | Molecule | binding
1 | FUS (from UniProt P35637 1-526) | binds
2 | HNRNPK (from UniProt P61978 1-463) | binds
3 | RBM14 (protein, UniProt Q96PK6 1-669) MKIFVGNVDGADTTPEELAALFAPYGTVMSCAVMKQFAFVHMRENAGALRAIEALHGHELRPGRALVVEMSRPRPLNTWKIFVGNVSAACTSQELRSLFERRGRVIECDVVKDYAFVHMEKEADAKAAIAQLNGKEVKGKRINVELSTKGQKKGPGLAVQSGDKTKKPGAGDTAFPGTGGFSATFDYQQAFGNSTGGFDGQARQPTPPFFGRDRSPLRRSPPRASYVAPLTAQPATYRAQPSVSLGAAYRAQPSASLGVGYRTQPMTAQAASYRAQPSVSLGAPYRGQLASPSSQSAAASSLGPYGGAQPSASALSSYGGQAAAASSLNSYGAQGSSLASYGNQPSSYGAQAASSYGVRAAASSYNTQGAASSLGSYGAQAASYGAQSAASSLAYGAQAASYNAQPSASYNAQSAPYAAQQAASYSSQPAAYVAQPATAAAYASQPAAYAAQATTPMAGSYGAQPVVQTQLNSYGAQASMGLSGSYGAQSAAAATGSYGAAAAYGAQPSATLAAPYRTQSSASLAASYAAQQHPQAAASYRGQPGNAYDGAGQPSAAYLSMSQGAVANANSTPPPYERTRLSPPRASYDDPYKKAVAMSKRYGSDRRLAELSDYRRLSESQLSFRRSPTKSSLDYRRLPDAHSDYARYSGSYNDYLRAAQMHSGYQRRM | binds
4 | HNRNPM (protein, UniProt P52272 1-730) MAAGVEAAAEVAATEIKMEEESGAPGVPSGNGAPGPKGEGERPAQNEKRKEKNIKRGGNRFEPYANPTKRYRAFITNIPFDVKWQSLKDLVKEKVGEVTYVELLMDAEGKSRGCAVVEFKMEESMKKAAEVLNKHSLSGRPLKVKEDPDGEHARRAMQKVMATTGGMGMGPGGPGMITIPPSILNNPNIPNEIIHALQAGRLGSTVFVANLDYKVGWKKLKEVFSMAGVVVRADILEDKDGKSRGIGTVTFEQSIEAVQAISMFNGQLLFDRPMHVKMDERALPKGDFFPPERPQQLPHGLGGIGMGLGPGGQPIDANHLNKGIGMGNIGPAGMGMEGIGFGINKMGGMEGPFGGGMENMGRFGSGMNMGRINEILSNALKRGEIIAKQGGGGGGGSVPGIERMGPGIDRLGGAGMERMGAGLGHGMDRVGSEIERMGLVMDRMGSVERMGSGIERMGPLGLDHMASSIERMGQTMERIGSGVERMGAGMGFGLERMAAPIDRVGQTIERMGSGVERMGPAIERMGLSMERMVPAGMGAGLERMGPVMDRMATGLERMGANNLERMGLERMGANSLERMGLERMGANSLERMGPAMGPALGAGIERMGLAMGGGGGASFDRAIEMERGNFGGSFAGSFGGAGGHAPGVARKACQIFVRNLPFDFTWKMLKDKFNECGHVLYADIKMENGKSKGCGVVKFESPEVAERACRMMNGMKLSGREIDVRIDRNA | binds
